These results are taken from publication PMC6602948.

By UniProt entry, the sequences of proteins in these tests, tags left out. Residues count along the entry.
UniProt Q01097, residues 27-1482: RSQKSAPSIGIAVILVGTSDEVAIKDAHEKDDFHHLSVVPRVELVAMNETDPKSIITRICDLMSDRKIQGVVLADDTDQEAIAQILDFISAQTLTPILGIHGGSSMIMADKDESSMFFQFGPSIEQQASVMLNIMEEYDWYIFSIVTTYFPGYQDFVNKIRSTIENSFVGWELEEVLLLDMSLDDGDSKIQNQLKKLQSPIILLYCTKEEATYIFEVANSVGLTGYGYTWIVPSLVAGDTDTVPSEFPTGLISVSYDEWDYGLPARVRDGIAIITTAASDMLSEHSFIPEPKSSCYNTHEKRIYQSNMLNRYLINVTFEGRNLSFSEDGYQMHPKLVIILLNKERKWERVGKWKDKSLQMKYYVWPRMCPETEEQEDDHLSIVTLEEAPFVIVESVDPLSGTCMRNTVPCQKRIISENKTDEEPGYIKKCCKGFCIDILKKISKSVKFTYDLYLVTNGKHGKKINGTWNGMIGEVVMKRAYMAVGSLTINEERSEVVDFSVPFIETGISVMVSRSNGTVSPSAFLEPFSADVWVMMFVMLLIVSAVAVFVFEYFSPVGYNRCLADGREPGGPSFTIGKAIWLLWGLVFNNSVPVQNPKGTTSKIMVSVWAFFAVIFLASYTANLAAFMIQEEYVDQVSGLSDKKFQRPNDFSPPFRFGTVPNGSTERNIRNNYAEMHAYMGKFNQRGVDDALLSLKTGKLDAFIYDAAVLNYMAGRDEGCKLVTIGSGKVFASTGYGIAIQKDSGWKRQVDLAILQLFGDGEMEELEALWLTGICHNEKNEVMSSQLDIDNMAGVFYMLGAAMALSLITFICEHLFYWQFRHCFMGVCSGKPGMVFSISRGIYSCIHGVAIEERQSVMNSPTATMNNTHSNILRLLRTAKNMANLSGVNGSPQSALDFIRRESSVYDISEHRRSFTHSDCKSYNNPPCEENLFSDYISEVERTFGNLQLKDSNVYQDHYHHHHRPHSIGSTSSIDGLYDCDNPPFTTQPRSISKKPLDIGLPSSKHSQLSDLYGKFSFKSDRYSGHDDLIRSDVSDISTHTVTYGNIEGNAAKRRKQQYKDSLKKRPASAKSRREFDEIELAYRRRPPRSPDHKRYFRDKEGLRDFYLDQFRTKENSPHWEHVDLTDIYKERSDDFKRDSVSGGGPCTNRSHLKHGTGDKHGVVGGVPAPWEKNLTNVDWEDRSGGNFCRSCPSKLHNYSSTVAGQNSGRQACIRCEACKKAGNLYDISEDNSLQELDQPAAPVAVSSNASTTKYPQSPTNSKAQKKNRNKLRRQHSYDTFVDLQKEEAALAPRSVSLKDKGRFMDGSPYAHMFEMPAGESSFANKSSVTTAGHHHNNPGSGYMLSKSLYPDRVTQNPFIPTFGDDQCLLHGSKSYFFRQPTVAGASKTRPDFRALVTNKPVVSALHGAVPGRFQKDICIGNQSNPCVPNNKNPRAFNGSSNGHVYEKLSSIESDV

Results are given in words; binding and its absence hold for the method and conditions named. Binding seen in cells or lysates may run through a third protein. Some binding calls cover weakened binding; strength is not graded here.

In the assay the target is T1, SAP-102 (mouse (endogenous in mPFC tissue)) (UniProt P70175).
T1 sequence: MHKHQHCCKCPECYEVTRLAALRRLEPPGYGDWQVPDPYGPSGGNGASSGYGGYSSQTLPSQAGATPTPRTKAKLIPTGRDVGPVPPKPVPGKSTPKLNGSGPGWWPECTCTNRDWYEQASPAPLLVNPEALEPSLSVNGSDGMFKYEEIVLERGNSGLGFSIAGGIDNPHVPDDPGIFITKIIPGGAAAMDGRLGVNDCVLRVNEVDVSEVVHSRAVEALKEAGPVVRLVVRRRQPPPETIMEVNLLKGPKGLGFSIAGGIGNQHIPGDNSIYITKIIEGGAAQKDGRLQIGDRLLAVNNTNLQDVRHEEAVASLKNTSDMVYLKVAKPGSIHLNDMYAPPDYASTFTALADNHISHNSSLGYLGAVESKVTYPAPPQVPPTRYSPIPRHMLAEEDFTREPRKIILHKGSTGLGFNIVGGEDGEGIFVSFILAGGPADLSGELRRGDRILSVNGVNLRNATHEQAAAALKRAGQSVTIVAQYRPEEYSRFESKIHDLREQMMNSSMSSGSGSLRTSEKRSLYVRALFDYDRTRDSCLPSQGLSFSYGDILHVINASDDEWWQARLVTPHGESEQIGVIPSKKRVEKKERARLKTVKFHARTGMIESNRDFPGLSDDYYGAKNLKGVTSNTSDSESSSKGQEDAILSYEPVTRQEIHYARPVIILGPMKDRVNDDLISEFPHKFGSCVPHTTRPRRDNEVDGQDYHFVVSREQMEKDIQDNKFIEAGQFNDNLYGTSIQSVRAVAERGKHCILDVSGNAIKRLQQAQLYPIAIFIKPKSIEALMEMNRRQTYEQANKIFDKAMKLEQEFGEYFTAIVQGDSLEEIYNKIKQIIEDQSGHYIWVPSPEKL
Briefly: co-IP; synaptosomal proteins of mPFC tissue from control and PSD-95 knockout mice incubated overnight with 2.5 µg anti-SAP-102; Protein G MagBeads 1-2 h at room temperature; washed three times with 1x PBS; blot for GluN2B (GluA1 as negative control).

Consider “NMDAR subunit GluN2B (from UniProt Q01097 27-1482) (receptor)”, for which the binding result was “binds”.
